# Assay results: PMC7819943, “Rice protein-binding microarrays: a tool to detect cis-acting elements near promoter regions in rice”
# Chains of the proteins cited; added tags and fusions are not shown.
# UniProt Q0JBA9, entry or part of it: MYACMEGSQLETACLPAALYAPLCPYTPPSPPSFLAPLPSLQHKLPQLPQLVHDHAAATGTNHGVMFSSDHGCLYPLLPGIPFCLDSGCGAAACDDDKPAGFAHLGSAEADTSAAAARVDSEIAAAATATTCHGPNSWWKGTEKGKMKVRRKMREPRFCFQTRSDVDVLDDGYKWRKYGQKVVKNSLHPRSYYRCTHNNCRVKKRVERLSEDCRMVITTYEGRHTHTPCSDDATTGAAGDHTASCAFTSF
# The other results are listed elsewhere or left out.
# Target: OsWRKY34 (Oryza sativa, UniProt Q0JBA9 1-250)
# Experiment: protein-binding microarray (RPBM); PBS, 2% BSA, 51.3 ng/ul salmon testes DNA, 50 uM zinc acetate, 200 nM TF, 25 C, 1 h; high values mean tight binding
# Details: protein: recombinant; tags: N-terminal polyhistidine and DsRed monomer fusion (pET32a); label: CyDye5-dUTP incorporated in the synthesized complementary strand; 3' TTTTT single-stranded linker to array surface; dsDNA, one strand shown
# Outline: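 An Axon 4000B scanner gave the binding signal as per-feature fluorescence intensity in arbitrary units. This followed washing of a custom Agilent array that had been incubated for 1 h at 25 °C with 200 nM protein in PBS, 2% BSA, salmon testes DNA and 50 µM zinc acetate. The proteins were transcription factors fused at the N-terminus to polyhistidine and DsRed, expressed in E. coli BL21-CodonPlus and purified on Ni–NTA.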
row,Sequence,binding signal
1,TTAAGATTCGTGCAGCCTCACTCGGACTTGTCATCTGATCCGGAGTCACCTAGTGCAG,8340 fluorescence intensity (a.u.)
2,ATCTTAAGCTGTCCTTTTTCATGCCGAGTCAGAGTTTCATCGGAGTCACCTAGTGCAG,9130 fluorescence intensity (a.u.)
3,AAGACAATTGTGTATCTCTTGTGCACATTTTCCTTCTAATCGGAGTCACCTAGTGCAG,8330 fluorescence intensity (a.u.)
4,CTCACAATTTTTCACATCACCATGTTCTTTAGTTCCTTAGCGGAGTCACCTAGTGCAG,8480 fluorescence intensity (a.u.)
5,CCCTGCTTCCTTTCTTCATCGTCCTCAGCTCATCATCTGCCGGAGTCACCTAGTGCAG,8940 fluorescence intensity (a.u.)
6,TCCATGGCATTTCCTACTTCCTATATTTCCTTTTTTATTGCGGAGTCACCTAGTGCAG,10600 fluorescence intensity (a.u.)
7,GGCTGCGCTTGTACACCTACAGTAGATCTGAAACCTTCTCCGGAGTCACCTAGTGCAG,9420 fluorescence intensity (a.u.)
8,TCATCAGCGGCGGCGGTGTCTTCTTGCTCGGGGAAGGGCTCGGAGTCACCTAGTGCAG,8680 fluorescence intensity (a.u.)
9,ATACTTTGACCATCAATTTATCCCATGTTATGTTTCCGATCGGAGTCACCTAGTGCAG,11100 fluorescence intensity (a.u.)
10,CTCTCTCCTCGTCGTAGGTGTCGTCGCCGTACTGCACCATCGGAGTCACCTAGTGCAG,9890 fluorescence intensity (a.u.)
11,AAAACCCTCCGGCTCATTCTTGCCCACGCCGCGCCGCCGCCGGAGTCACCTAGTGCAG,8390 fluorescence intensity (a.u.)
12,GGCTTACCCAAGAATAACGATCCAACTTGGGGAGGGAGGGCGGAGTCACCTAGTGCAG,10000 fluorescence intensity (a.u.)
13,TATATTTGATCTTCTTCCGTGTGGGGTCCCTTCTTGCTCTCGGAGTCACCTAGTGCAG,10900 fluorescence intensity (a.u.)
14,TTTGAATTGTGGGGTTGTAATGTTTGTTGGGTCATGATGACGGAGTCACCTAGTGCAG,14800 fluorescence intensity (a.u.)
15,CTGTAACCCCATTTTAAACCAAGTCTGTCCACTTCCTTGCCGGAGTCACCTAGTGCAG,9290 fluorescence intensity (a.u.)
16,AGATATTATTTTAGTGTTGTGCATCTACCCGTCCAACTCACGGAGTCACCTAGTGCAG,8690 fluorescence intensity (a.u.)
17,ACAGATCCCACATTCCCACTACTGCATGCTTAGTTGATTACGGAGTCACCTAGTGCAG,9370 fluorescence intensity (a.u.)
18,TGACTGCTTGCATTTGGTGTTATTCTCTGCCATATATAAACGGAGTCACCTAGTGCAG,9290 fluorescence intensity (a.u.)
19,CCACTTTGCCTCTTTCCTCTCCCTTATGCCGCATTTTTCTCGGAGTCACCTAGTGCAG,8420 fluorescence intensity (a.u.)
20,AAGAGCTGGGTTTCTTCTTCATATTCTTAGAAGTTGACTACGGAGTCACCTAGTGCAG,9470 fluorescence intensity (a.u.)
21,CACGACGCCTCACACACATATTTTGCTTCCTTGCTTGTGACGGAGTCACCTAGTGCAG,11000 fluorescence intensity (a.u.)

# Reprinted from the listing for reference:
row,Sequence,binding signal
6,TCCATGGCATTTCCTACTTCCTATATTTCCTTTTTTATTGCGGAGTCACCTAGTGCAG,10600 fluorescence intensity (a.u.)
7,GGCTGCGCTTGTACACCTACAGTAGATCTGAAACCTTCTCCGGAGTCACCTAGTGCAG,9420 fluorescence intensity (a.u.)
8,TCATCAGCGGCGGCGGTGTCTTCTTGCTCGGGGAAGGGCTCGGAGTCACCTAGTGCAG,8680 fluorescence intensity (a.u.)
9,ATACTTTGACCATCAATTTATCCCATGTTATGTTTCCGATCGGAGTCACCTAGTGCAG,11100 fluorescence intensity (a.u.)
10,CTCTCTCCTCGTCGTAGGTGTCGTCGCCGTACTGCACCATCGGAGTCACCTAGTGCAG,9890 fluorescence intensity (a.u.)

# (further entries)

row,Sequence,binding signal
1,AACACAACACGATACACACTTTAAAATCCCTAAAAAGACACGGAGTCACCTAGTGCAG,8690 fluorescence intensity (a.u.)
2,AGACACAACCCTTATCATCGCCGCCGACTCGACGCCACCACGGAGTCACCTAGTGCAG,8880 fluorescence intensity (a.u.)
3,TTCCCTCTCTATTATGGATCATGTGCCGGGTATCATCACACGGAGTCACCTAGTGCAG,8090 fluorescence intensity (a.u.)
4,GCATTGTACATTTCGTAGTACTATTCTAGCATTGCTTAGTCGGAGTCACCTAGTGCAG,9640 fluorescence intensity (a.u.)
5,GATGCCTTGGGGTTCGGTCTTCCACTTGACATAGTATCCACGGAGTCACCTAGTGCAG,8090 fluorescence intensity (a.u.)
6,ATTAAAAATACACTATTCCTCTTTTTTTTTCTCATATGTTCGGAGTCACCTAGTGCAG,10100 fluorescence intensity (a.u.)
7,CTACAGTCAAAAGTTCGCAACACGCAAGTATGTTCATTTTCGGAGTCACCTAGTGCAG,8940 fluorescence intensity (a.u.)
8,TGTCCTAGCAATTCTCTCTCTAGCTCCAGTATTAATTTCTCGGAGTCACCTAGTGCAG,9270 fluorescence intensity (a.u.)
9,TTCCACAGAGTCAAGTCCACAGAACGTATGCTCCATGTTCCGGAGTCACCTAGTGCAG,8160 fluorescence intensity (a.u.)
10,TCGATTTGGTTTCTGGCTGGATTGGATCCGGGGAGGAGGACGGAGTCACCTAGTGCAG,10300 fluorescence intensity (a.u.)
11,CAATTTTTCTCTCTTCTCTAGTCTCTCTTTTTGTTTCGTCCGGAGTCACCTAGTGCAG,9730 fluorescence intensity (a.u.)
12,ACAATGACTGCGACTTACTTCGTCCTCCCTCGGCGCGATACGGAGTCACCTAGTGCAG,9000 fluorescence intensity (a.u.)
13,GTTTTGTTTAGTTTAGGGGTGGAGATTTCTGGTTTTGTGGCGGAGTCACCTAGTGCAG,12400 fluorescence intensity (a.u.)
14,ATAACATTTTTTTACTGTGTATTTGGGGATCTCAGAAATTCGGAGTCACCTAGTGCAG,9040 fluorescence intensity (a.u.)
15,ACACTTCCCAAAACCCCAAACCGCCCATATCTCTCTCCTCCGGAGTCACCTAGTGCAG,8130 fluorescence intensity (a.u.)
16,GGGTGTAAAGTTTTTTTGTTTCACATCGGGTATTATATAGCGGAGTCACCTAGTGCAG,8480 fluorescence intensity (a.u.)
17,ATTCTAGAACTCAAATATCTCTACAAGTTTTTATTTTCGTCGGAGTCACCTAGTGCAG,8530 fluorescence intensity (a.u.)
18,TTGACACTGTTGACTTTTTAATATATGTTTGACTGTTCGTCGGAGTCACCTAGTGCAG,20400 fluorescence intensity (a.u.)
19,TGCCAGCGAACACGTCTACGGTACACTCCTCGATCGCCTCCGGAGTCACCTAGTGCAG,8550 fluorescence intensity (a.u.)
20,AAACTGGAACCATTCTCTTCTTCTTTTTTCCATTGATGAACGGAGTCACCTAGTGCAG,9290 fluorescence intensity (a.u.)
21,CACTCCTCTGCTGCTCGTCGTCAATGCCATCCTCATCATGCGGAGTCACCTAGTGCAG,10500 fluorescence intensity (a.u.)

row,Sequence,binding signal
1,GATTTTAGGGGTTTTTCATCGAATTTTATTTTTCATCACTCGGAGTCACCTAGTGCAG,9850 fluorescence intensity (a.u.)
2,TAGGACGGAGGGAGTAGTTTATTTTTCAGTCTTTACTTTTCGGAGTCACCTAGTGCAG,8520 fluorescence intensity (a.u.)
3,GCAGACAGGACAATACATTATACAACCATACAGTCATACACGGAGTCACCTAGTGCAG,9330 fluorescence intensity (a.u.)
4,ACCCCAGCAACTCGCCCTGCCGGCGCCTCCTCAACCACCACGGAGTCACCTAGTGCAG,13200 fluorescence intensity (a.u.)
5,GAGTAATGCCTTTTAGCCTCATCTTCTTATGTTCTTTGTCCGGAGTCACCTAGTGCAG,10400 fluorescence intensity (a.u.)
6,TGACATTCCACCCCATAAGTCATTTTGTTGCAAATACCCACGGAGTCACCTAGTGCAG,8180 fluorescence intensity (a.u.)
7,AGGCTAATATCCATATGTGTTGACTAAATTGTTCTTTGCTCGGAGTCACCTAGTGCAG,10300 fluorescence intensity (a.u.)
8,CGTTCGCCCGTCCGCTGCCGCCCTCCACCAGCCGCACCCGCGGAGTCACCTAGTGCAG,8580 fluorescence intensity (a.u.)
9,ACCAATGCAACCCAACGCAAGCGAAGCACATATGCCAAACCGGAGTCACCTAGTGCAG,8100 fluorescence intensity (a.u.)
10,AACTTGGCATATTGAAATTTCTACTGTCATGCTTCCTTGTCGGAGTCACCTAGTGCAG,10000 fluorescence intensity (a.u.)
11,ACTTCTTGTATTTACTGTTGACCAATTAGTCTCTTCCTAACGGAGTCACCTAGTGCAG,13100 fluorescence intensity (a.u.)
12,ATTTTTGTTAGTTCTACTGCCAGTTTGACGCTATTTATTTCGGAGTCACCTAGTGCAG,8230 fluorescence intensity (a.u.)
13,GGTGCTGGTCTTCGTTTTGTATCAATAATCATTCGTAGCGCGGAGTCACCTAGTGCAG,8640 fluorescence intensity (a.u.)
14,AACCTTCGCTATTCCATTGCCATCGCCGCCACCTCCATTGCGGAGTCACCTAGTGCAG,8430 fluorescence intensity (a.u.)
15,ACCTTGTACTTTTGTCTACATATGTGTCATTCTATCTTGGCGGAGTCACCTAGTGCAG,8910 fluorescence intensity (a.u.)
16,TATATCCTCCTCATCTCTTCGCTTATCAAGATTCCTGTTACGGAGTCACCTAGTGCAG,8600 fluorescence intensity (a.u.)
17,GAGATTGTGTGTGTATAGAATGAGTTGTGAATTTGGTAATCGGAGTCACCTAGTGCAG,11100 fluorescence intensity (a.u.)
18,CTCGCTCTCTCCGATTCTCCAGCACAAACCGACGGCGAGCCGGAGTCACCTAGTGCAG,8390 fluorescence intensity (a.u.)
19,AGCACATATTTGACCGTTCGTCTTATTCAAAAACTTTTATCGGAGTCACCTAGTGCAG,8540 fluorescence intensity (a.u.)
20,CATATTTGTGTTCATTTATTAAGTCTATTCGTTATTTGTGCGGAGTCACCTAGTGCAG,10100 fluorescence intensity (a.u.)
21,CTATAAATCCTGCTTTCCTTCTCTCTCTTATCTTCTCTCTCGGAGTCACCTAGTGCAG,10000 fluorescence intensity (a.u.)

row,Sequence,binding signal
1,CATATCTATGCCTTTCATGTTTCAAATGCTTCCTGTTTGTCGGAGTCACCTAGTGCAG,9420 fluorescence intensity (a.u.)
2,GAAGGCGTACTTTGACTTTACGTGACCCGTCCCCGGCCGCCGGAGTCACCTAGTGCAG,9650 fluorescence intensity (a.u.)
3,TGAGAGATTCCTTCCTTGTTAACGGTGTTGCCTTCAAGAACGGAGTCACCTAGTGCAG,9330 fluorescence intensity (a.u.)
4,AATTTACATCTCGGCCACCTAACGGTAACATCTTAATCCACGGAGTCACCTAGTGCAG,9880 fluorescence intensity (a.u.)
5,TATAATTGGTTTGAGGTTTTTTCATCTAAGTTTATTTTTCCGGAGTCACCTAGTGCAG,9200 fluorescence intensity (a.u.)
6,TTTCGACCGTACCGTTTTTGGCTATTTTTAAATTTTATTTCGGAGTCACCTAGTGCAG,11700 fluorescence intensity (a.u.)
7,ATGGCGCACATGCTTGGATGGGCCGGCCCGTCGCTCCACGCGGAGTCACCTAGTGCAG,8192 fluorescence intensity (a.u.)
8,GGTAGTACTCTCGCATCTTTTGAAGCCTAGCTTCCTTGTCCGGAGTCACCTAGTGCAG,8070 fluorescence intensity (a.u.)
9,TTGCAGTATCCCGGTTGCCCACCTTTCATGGTCCATCACCCGGAGTCACCTAGTGCAG,8490 fluorescence intensity (a.u.)
10,CCGGGCCGGTCACTGACATTGTGAGCCCTGTCCATTTTAGCGGAGTCACCTAGTGCAG,8210 fluorescence intensity (a.u.)
11,GTTGGATTATTGTGAGTCTTGTCTTTCTTATCTATAGTTGCGGAGTCACCTAGTGCAG,9420 fluorescence intensity (a.u.)
12,TAGTAAACAACAGAAGTTGTTCTGTATGGTCTACTTGTTTCGGAGTCACCTAGTGCAG,8880 fluorescence intensity (a.u.)
13,ATCCAACGAAATGGTGCTACTTTCCACCCTTTTTCTTTGGCGGAGTCACCTAGTGCAG,8030 fluorescence intensity (a.u.)
14,CACCAACTCACTGCTCCTCTCAGTGTGCCACTACCGGACACGGAGTCACCTAGTGCAG,9130 fluorescence intensity (a.u.)
15,CGTCGTGTGTCCAAACTTCCTAGGCAGTTTTATCCCACTTCGGAGTCACCTAGTGCAG,14000 fluorescence intensity (a.u.)
16,ACCCATGCTGTTATCCGGTTCACAAGCAAGCCCACATCTGCGGAGTCACCTAGTGCAG,8320 fluorescence intensity (a.u.)
17,CCCTTTCTCAGTCCACCCCATGTGTGGTATTTCCCTGTCTCGGAGTCACCTAGTGCAG,8440 fluorescence intensity (a.u.)
18,GCATGCTCTGGTCCCCGCCGTTCCTTCCGCCGCATGCCCCCGGAGTCACCTAGTGCAG,8030 fluorescence intensity (a.u.)
19,TTTAGCCTTTTATCTTTTTTGTCTTAATTATAGGGTTAGTCGGAGTCACCTAGTGCAG,8050 fluorescence intensity (a.u.)
20,GCTCGCAATACCATATCATGATTCATCGTATCTTTTTTTTCGGAGTCACCTAGTGCAG,11500 fluorescence intensity (a.u.)
21,TGCACCTCTCAGTTCGTTTCCTGCTTAGTTCTTCAGTTCTCGGAGTCACCTAGTGCAG,9370 fluorescence intensity (a.u.)
